Results taken from PubChem BioAssay AID250 (DTP/NCI, 2004).
The list is a part of this screen's results and no random one: it gathers tests that were run many times, whatever their T/C, doses with no T/C, and many T/C values between a quarter and a half above the control. Further doses and runs are listed elsewhere. T/C is the treated group as % of the vehicle group. Some entries give survivors of the animals treated and no T/C: the source files T/C as zero there, which appears to mark a toxic dose or a test without result, not a measured value. Some survivor counts are full or nearly so, which does not show that the dose was tolerated: the source hardly ever lists a survival T/C far under the control, and the zero likely stands for such cases as well. Counts of survivors are from the toxicity check (mostly the fifth day) where no day follows; animals may have died later. Schedules are NCI's codes, taken here to give the interval after Q, in days (D) or hours (H), and the number of doses after X. Some schedule codes hold Z or #, which are not explained here. Where survival is the endpoint, the PubChem record calls one and a half times the control and up active, and a quarter to a half above the control has no call in these data; cut-offs in other NCI protocols can differ. Signs of the kind (2×) count equal records among those shown. Some entries hold several experiments; the values are given in rising order.

Tested on: BDF1 mice, L1210 leukemia sc, survival T/C
Experiment: NCI In Vivo Anticancer Drug Screen. Data for tumor model L1210 Leukemia (subcutaneous) in B6D2F1 (BDF1) mice
Details: T/C endpoint: median survival time, vehicle: saline, higher T/C = longer survival
Outline: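 Expressed as T/C: measurement in compound-treated, tumor-bearing mice relative to vehicle-treated control mice, based on survival or tumor size.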

In the case of O=P1(N(CCCl)CCCl)NCCCO1 (stereo not given), the T/C (dose: 108.0 mg/kg/injection, schedule: Q01DX Z (sc), evaluated on day 34) is reported as 205 and 237 % of control, the T/C (dose: 108.0 mg/kg/injection, schedule: Q01DX Z (sc), evaluated on day 40) is reported as 170 % of control and the T/C (dose: 108.0 mg/kg/injection, schedule: Q01DX Z (sc), run until all animals had died) is reported as 150, 155 (2×), 194, 211, 225 % of control. The survivor count (dose: 108.0 mg/kg/injection, schedule: Q01HX002 (ip)) was 7 of 8, the T/C (dose: 108.0 mg/kg/injection, schedule: Q07DX003 (sc), evaluated on day 6) was 214 and 245 % of control and the T/C (dose: 108.0 mg/kg/injection, schedule: Q07DX003 (sc), evaluated on day 7) was 153, 183, 195, 204, 215, 268, 279 % of control. The T/C (dose: 108.0 mg/kg/injection, schedule: Q07DX003 (sc), evaluated on day 30) was 153, 204, 273 % of control, the T/C (dose: 108.0 mg/kg/injection, schedule: Q07DX003 (sc), evaluated on day 33) was 245 % of control and the T/C (dose: 108.0 mg/kg/injection, schedule: Q07DX003 (sc), evaluated on day 35) was 222 % of control. The T/C (dose: 108.0 mg/kg/injection, schedule: Q07DX003 (sc), evaluated on day 36) was 216 % of control, the T/C (dose: 108.0 mg/kg/injection, schedule: Q07DX003 (sc), evaluated on day 40) was 100 % of control and the T/C (dose: 108.0 mg/kg/injection, schedule: Q07DX003 (sc), evaluated on day 45) was 195 and 242 % of control. For the same compound, the T/C (dose: 108.0 mg/kg/injection, schedule: Q08DX002 (sc), evaluated on day 7) was 158 and 239 % of control, the T/C (dose: 108.0 mg/kg/injection, schedule: Q08DX002 (sc), evaluated on day 32) was 155 % of control and the T/C (dose: 108.0 mg/kg/injection, schedule: Q08DX002 (sc), evaluated on day 36) was 233 % of control. The survivor count (dose: 108.0 mg/kg/injection, schedule: Q08DX003 (ip)) was 7 of 8, the T/C (dose: 180.0 mg/kg/injection, schedule: Q01DX001 (sc), evaluated on day 6) was 223 % of control and the T/C (dose: 180.0 mg/kg/injection, schedule: Q01DX001 (sc), evaluated on day 7) was 182, 202, 221, 234 % of control. For the same compound, the T/C (dose: 180.0 mg/kg/injection, schedule: Q01DX001 (sc), evaluated on day 30) was 182 and 221 % of control, the T/C (dose: 180.0 mg/kg/injection, schedule: Q01DX001 (sc), evaluated on day 32) was 200 % of control and the T/C (dose: 180.0 mg/kg/injection, schedule: Q01DX001 (sc), evaluated on day 33) was 225 and 244 % of control. The T/C (dose: 180.0 mg/kg/injection, schedule: Q01DX001 (sc), evaluated on day 35) was 205 % of control, the T/C (dose: 180.0 mg/kg/injection, schedule: Q01DX001 (sc), evaluated on day 36) was 222 % of control and the T/C (dose: 180.0 mg/kg/injection, schedule: Q01DX001 (sc), evaluated on day 40) was 195 % of control. For the same compound, the T/C (dose: 180.0 mg/kg/injection, schedule: Q01DX001 (sc), run until all animals had died) was 195 and 205 % of control, the T/C (dose: 180.0 mg/kg/injection, schedule: Q01DX Z (sc), evaluated on day 34) was 187 % of control and the T/C (dose: 180.0 mg/kg/injection, schedule: Q01DX Z (sc), evaluated on day 36) was 100 % of control. For the same compound, the T/C (dose: 180.0 mg/kg/injection, schedule: Q01DX Z (sc), evaluated on day 60) was 154 % of control, the survivor count (dose: 180.0 mg/kg/injection, schedule: Q01DX Z (sc)) was 8 of 10 and the survivor count (dose: 180.0 mg/kg/injection, schedule: Q01HX002 (ip)) was 8 of 8. The T/C (dose: 180.0 mg/kg/injection, schedule: Q07DX003 (sc), evaluated on day 6) was 303 and 313 % of control, the T/C (dose: 180.0 mg/kg/injection, schedule: Q07DX003 (sc), evaluated on day 7) was 156, 176, 188, 244, 326, 385 % of control and the T/C (dose: 180.0 mg/kg/injection, schedule: Q07DX003 (sc), evaluated on day 30) was 156, 176, 189 % of control. The T/C (dose: 180.0 mg/kg/injection, schedule: Q07DX003 (sc), evaluated on day 33) was 305 % of control, the T/C (dose: 180.0 mg/kg/injection, schedule: Q07DX003 (sc), evaluated on day 35) was 200 % of control and the T/C (dose: 180.0 mg/kg/injection, schedule: Q07DX003 (sc), evaluated on day 36) was 316 % of control. The T/C (dose: 180.0 mg/kg/injection, schedule: Q07DX003 (sc), evaluated on day 40) was 180 % of control, the T/C (dose: 180.0 mg/kg/injection, schedule: Q07DX003 (sc), evaluated on day 45) was 378 % of control and the T/C (dose: 180.0 mg/kg/injection, schedule: Q08DX002 (sc), evaluated on day 7) was 285 % of control (2×). The T/C (dose: 180.0 mg/kg/injection, schedule: Q08DX002 (sc), evaluated on day 32) was 283 % of control, the T/C (dose: 180.0 mg/kg/injection, schedule: Q08DX002 (sc), evaluated on day 36) was 288 % of control and the survivor count (dose: 180.0 mg/kg/injection, schedule: Q08DX003 (ip)) was 8 of 8. For the same compound, the T/C (dose: 200.0 mg/kg/injection, schedule: Q01DX001 (sc), evaluated on day 7) was 174, 176, 197, 216, 220, 221, 222, 225, 226, 231 % of control (2×), the T/C (dose: 200.0 mg/kg/injection, schedule: Q01DX001 (sc), evaluated on day 9) was 207 % of control and the T/C (dose: 200.0 mg/kg/injection, schedule: Q01DX001 (sc), evaluated on day 21) was 175 % of control. The T/C (dose: 200.0 mg/kg/injection, schedule: Q01DX001 (sc), evaluated on day 31) was 216 % of control, the T/C (dose: 200.0 mg/kg/injection, schedule: Q01DX001 (sc), evaluated on day 32) was 195 % of control and the T/C (dose: 200.0 mg/kg/injection, schedule: Q01DX001 (sc), evaluated on day 34) was 170 and 222 % of control. For the same compound, the T/C (dose: 200.0 mg/kg/injection, schedule: Q01DX001 (sc), evaluated on day 36) was 227 % of control, the T/C (dose: 200.0 mg/kg/injection, schedule: Q01DX001 (sc), evaluated on day 37) was 222 % of control and the T/C (dose: 200.0 mg/kg/injection, schedule: Q01DX001 (sc), evaluated on day 40) was 227 % of control. For the same compound, the T/C (dose: 200.0 mg/kg/injection, schedule: Q01DX001 (sc), evaluated on day 43) was 222 and 226 % of control, the T/C (dose: 200.0 mg/kg/injection, schedule: Q01DX001 (sc), evaluated on day 60) was 200 and 238 % of control and the T/C (dose: 200.0 mg/kg/injection, schedule: Q01DX001 (sc), run until all animals had died) was 195 % of control. The T/C (dose: 200.0 mg/kg/injection, schedule: Q08DX002 (sc), evaluated on day 7) was 180, 282, 301, 313, 344 % of control, the T/C (dose: 200.0 mg/kg/injection, schedule: Q08DX002 (sc), evaluated on day 21) was 175 % of control and the T/C (dose: 200.0 mg/kg/injection, schedule: Q08DX002 (sc), evaluated on day 34) was 275 % of control. For the same compound, the T/C (dose: 200.0 mg/kg/injection, schedule: Q08DX002 (sc), evaluated on day 36) was 300 % of control, the T/C (dose: 200.0 mg/kg/injection, schedule: Q08DX002 (sc), evaluated on day 37) was 316 % of control and the T/C (dose: 200.0 mg/kg/injection, schedule: Q08DX002 (sc), evaluated on day 43) was 333 % of control.
